According to PMC10435442, “Developing multitarget coumarin based anti-breast cancer agents: synthesis and molecular modeling study” (Scientific Reports, 2023):

Legend:
MCF-7 = assay: MTT cytotoxicity assay, MCF-7; settings: selectivity index MCF-10A versus MCF7
MDA-MB-231 = assay: MTT cytotoxicity assay, MDA-MB-231; settings: selectivity index MCF-10A versus MDA

SMILES | SI for MCF-10A (MCF7) (MCF-7) | SI for MCF-10A (MDA) (MDA-MB-231)
CC(=O)Oc1ccc2c(COC(=O)c3ccc(Cl)cc3)cc(=O)oc2c1 [Compound 14, (7-Acetoxy-2-oxo-2H-chromen-4-yl)methyl 4-chlorobenzoate] | 0.9 | –
O=C(OCc1cc(=O)oc2cc(O)ccc12)c1ccccc1 [Compound 2, (7-Hydroxy-2-oxo-2H-chromen-4-yl)methyl benzoate] | 30.8 | 3.5
CC(=O)Oc1ccc2c(COC(=O)c3ccccc3)cc(=O)oc2c1 [Compound 13, (7-Acetoxy-2-oxo-2H-chromen-4-yl)methyl benzoate] | 4.4 | 15.9
COc1ccccc1C(=O)OCc1cc(=O)oc2cc(OC(C)=O)ccc12 [Compound 15, (7-Acetoxy-2-oxo-2H-chromen-4-yl)methyl 2-methoxybenzoate] | 18.2 | 4.1
COc1cccc2c1C(=O)c1c(O)c3c(c(O)c1C2=O)C[C@@](O)(C(=O)CO)C[C@@H]3O[C@H]1C[C@H](N)[C@H](O)[C@H](C)O1 [Doxorubicin, reference compound] | 4.1 | 3.1
